Results are given in words; binding and its absence hold for the method and conditions named.
Tests used:
[1] = biological target: purified recombinant YspE2, full length (Yersinia pestis); experiment: SPR; Biacore T200; […] (0–20 μM) […] (20 mM HEPES pH 7.4, 150 mM NaCl, 3.4 mM EDTA, 0.005% P20); 25 °C; both purified
[2] = biological target: purified recombinant YspE1, full length (Yersinia pestis); experiment: as above

B1: human guanylate-binding protein 4 (hGBP4) used in SPR (protein, UniProt Q96PP9 1-640)
chain: MGERTLHAAVPTPGYPESESIMMAPICLVENQEEQLTVNSKALEILDKISQPVVVVAIVGLYRTGKSYLMNRLAGKRNGFPLGSTVQSETKGIWMWCVPHLSKPNHTLVLLDTEGLGDVEKSNPKNDSWIFALAVLLSSSFVYNSVSTINHQALEQLHYVTELAELIRAKSCPRPDEAEDSSEFASFFPDFIWTVRDFTLELKLDGNPITEDEYLENALKLIPGKNPKIQNSNMPRECIRHFFRKRKCFVFDRPTNDKQYLNHMDEVPEENLERHFLMQSDNFCSYIFTHAKTKTLREGIIVTGKRLGTLVVTYVDAINSGAVPCLENAVTALAQLENPAAVQRAADHYSQQMAQQLRLPTDTLQELLDVHAACEREAIAVFMEHSFKDENHEFQKKLVDTIEKKKGDFVLQNEEASAKYCQAELKRLSEHLTESILRGIFSVPGGHNLYLEEKKQVEWDYKLVPRKGVKANEVLQNFLQSQVVVEESILQSDKALTAGEKAIAAERAMKEAAEKEQELLREKQKEQQQMMEAQERSFQEYMAQMEKKLEEERENLLREHERLLKHKLKVQEEMLKEEFQKKSEQLNKEINQLKEKIESTKNEQLRLLKILDMASNIMIVTLPGASKLLGVGTKYLGSRI
binding [1]: no binding
binding [2]: no binding

From PMC9352726 (Nature Communications, 2022)
